Assay results taken from publication PMC8685506.
These are yes or no findings as the source states them, for the method shown. Some entries that bind do so weakly or less than the wild type.

Amino acid sequences for entries named in this document (tags omitted).
UniProt P05556: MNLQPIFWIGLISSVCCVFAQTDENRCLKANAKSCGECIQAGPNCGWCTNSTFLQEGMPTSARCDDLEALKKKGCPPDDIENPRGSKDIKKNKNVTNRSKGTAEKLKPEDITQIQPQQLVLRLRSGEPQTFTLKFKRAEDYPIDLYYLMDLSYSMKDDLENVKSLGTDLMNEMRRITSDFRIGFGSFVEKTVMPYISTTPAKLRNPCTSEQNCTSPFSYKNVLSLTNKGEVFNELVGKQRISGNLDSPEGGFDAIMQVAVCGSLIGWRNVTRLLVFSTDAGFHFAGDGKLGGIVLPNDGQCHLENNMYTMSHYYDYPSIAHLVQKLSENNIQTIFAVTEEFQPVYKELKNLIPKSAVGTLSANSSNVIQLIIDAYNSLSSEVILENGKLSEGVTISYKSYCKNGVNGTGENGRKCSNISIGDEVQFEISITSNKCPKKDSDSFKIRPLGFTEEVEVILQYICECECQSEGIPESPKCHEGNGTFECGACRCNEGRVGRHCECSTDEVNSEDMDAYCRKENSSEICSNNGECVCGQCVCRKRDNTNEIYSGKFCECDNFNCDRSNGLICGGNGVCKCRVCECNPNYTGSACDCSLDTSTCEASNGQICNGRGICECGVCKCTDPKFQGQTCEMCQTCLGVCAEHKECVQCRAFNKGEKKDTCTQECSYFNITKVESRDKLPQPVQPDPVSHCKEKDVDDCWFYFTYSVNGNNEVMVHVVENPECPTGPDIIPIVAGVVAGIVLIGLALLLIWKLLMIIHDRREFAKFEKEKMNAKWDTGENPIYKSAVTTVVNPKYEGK

Molecular target: integrin β1 (ITGB1) on the surface of human splenic fibroblasts (HSF) (human (endogenous in HSF)) (UniProt P05556)
Assay: flow cytometry on cells; HSF incubated with PvSRA 50 μg/ml at room temperature for 2 h, detected with APC-anti-6xHis-tag; with or without pretreatment of the cells with anti-human ITGB1 antibody (1:50, 1 h, room temperature); only the binder purified

recombinant Plasmodium vivax surface-related antigen (PvSRA) functional region, aa 25-321, 6xHis (from UniProt A5K0T6 25-321) (domain or fragment)
binding: binds
